# PubChem BioAssay AID1259254, NCATS – 2017
# Test: 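Genome-wide screen for genes that prevent DNA re-replication in cancer cells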 (primary screen)
# Cell system: human HCT116 colorectal cancer cells
# Reagents: single siRNA against human genes
# Time to read-out: 3 days
# Detection: 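Nuclei stained with Hoechst and imaged; cell-cycle phase assigned by DNA content; G2 share scaled per plate, non-targeting siRNA 0%, GMNN siRNA 100%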
# Reading the numbers: G2 robust z-score and G2 cells, % of GMNN control: higher = more G2 cells, more excess DNA replication; raw share of cells in G2: higher = larger share of cells with G2 DNA content
# Hit rule: 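An siRNA counts as active if its G2 robust z-score lies at least 5 MADs above the screen median; here such calls match roughly 38% of GMNN control or more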
# In all, the deposit lists about 59,000 reagents; shown is a random part of them. Of all reagents, about 1,550 (2.6%) got an active call. 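G2 share is only a proxy for re-replication; each gene was hit by three separate siRNAs, and active genes were retested.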 Raw values are not corrected between plates. The numbers tell different reagents against one gene apart. No sequences are given here. Not stated in the record: the amount of reagent.
gene,reagent no.,G2 robust z-score,"G2 cells, % of GMNN control",raw share of cells in G2 (%),outcome
AMTN,1,0.904,9.33,7.2,inactive
AMTN,2,-0.795,-2.62,2.48,inactive
AMTN,3,-0.542,-0.847,4.44,inactive
WDFY2,1,-0.215,1.46,4.68,inactive
WDFY2,2,0.159,4.09,4.55,inactive
WDFY2,3,-0.208,1.5,2.26,inactive
GJD2,1,0.394,5.74,4.82,inactive
GJD2,2,-1.13,-4.97,3.66,inactive
GJD2,3,-0.485,-0.448,3.49,inactive
DNASE1L3,1,-0.0448,2.65,5.96,inactive
DNASE1L3,2,-0.239,1.28,5.42,inactive
DNASE1L3,3,1.54,13.8,8.86,inactive
MRPL39,1,-0.917,-3.49,2.46,inactive
MRPL39,2,1.09,10.6,8.16,inactive
MRPL39,3,-0.588,-1.17,5.42,inactive
CD37,1,-0.666,-1.72,4.49,inactive
CD37,2,5.87,44.2,20.3,active
CD37,3,0.935,9.55,7.26,inactive
FBN3,1,0.302,5.09,6.67,inactive
FBN3,2,-0.21,1.49,4.73,inactive
FBN3,3,-0.45,-0.198,5.35,inactive
FBXL8,1,-0.476,-0.378,3.02,inactive
FBXL8,2,4.29,33.2,17.3,inactive
FBXL8,3,-0.481,-0.417,3.97,inactive
FZD8,1,5.15,39.2,19.9,active
FZD8,2,-0.264,1.11,4.9,inactive
FZD8,3,0.32,5.22,4.87,inactive
ZYG11A,1,-0.302,0.843,3.95,inactive
ZYG11A,2,0.0689,3.45,4.73,inactive
ZYG11A,3,2.2,18.5,9.39,inactive
CCDC122,1,-0.184,1.67,4.2,inactive
CCDC122,2,-0.154,1.88,3.59,inactive
CCDC122,3,0.84,8.88,5.57,inactive
CRTC1,1,-0.0299,2.76,4.49,inactive
CRTC1,2,-0.687,-1.87,2.91,inactive
CRTC1,3,2.59,21.2,15.4,inactive
DEGS2,1,-0.64,-1.54,3.9,inactive
DEGS2,2,0.054,3.35,6.4,inactive
DEGS2,3,-0.803,-2.68,4.43,inactive
ITGA10,1,-0.535,-0.799,4.98,inactive
ITGA10,2,-0.374,0.337,4.69,inactive
ITGA10,3,1.99,16.9,10.8,inactive
ZNF668,1,6.05,45.5,18.9,active
ZNF668,2,-0.904,-3.4,4.37,inactive
ZNF668,3,0.149,4.01,4.89,inactive
NAT2,1,-0.0232,2.8,5.67,inactive
NAT2,2,-0.992,-4.01,3.65,inactive
NAT2,3,-0.499,-0.546,3.79,inactive
RPAP2,1,-1.21,-5.52,2.15,inactive
RPAP2,2,-0.599,-1.25,3.76,inactive
RPAP2,3,0.55,6.84,4.25,inactive
PLA2G2F,1,1.26,11.8,10.5,inactive
PLA2G2F,2,-0.0263,2.78,5.33,inactive
PLA2G2F,3,-0.943,-3.66,2.89,inactive
OMA1,1,-1.08,-4.66,3.63,inactive
OMA1,2,0.79,8.53,7.28,inactive
OMA1,3,-0.525,-0.726,3.99,inactive
UFC1,1,2.24,18.7,9.38,inactive
UFC1,2,-0.101,2.26,4.41,inactive
UFC1,3,1.29,12,9.33,inactive
TMEM117,1,-0.0917,2.32,4.88,inactive
TMEM117,2,4.51,34.7,13.8,inactive
TMEM117,3,-0.794,-2.62,1.61,inactive
MYRIP,1,-0.857,-3.06,4.77,inactive
MYRIP,2,4.4,34,15.5,inactive
MYRIP,3,1.22,11.6,7.77,inactive
RELL1,1,-0.465,-0.303,2.87,inactive
RELL1,2,0.307,5.13,6.21,inactive
RELL1,3,-0.664,-1.7,2.75,inactive
